PMC5765009
These are yes or no findings as the source states them, for the method shown. Binding seen in cells or lysates may run through a third protein. Some binding calls cover weakened binding; strength is not graded here.

Amino acid sequences for entries named in this document (tags omitted). Residues count along the entry.
UniProt P11021, residues 19-654: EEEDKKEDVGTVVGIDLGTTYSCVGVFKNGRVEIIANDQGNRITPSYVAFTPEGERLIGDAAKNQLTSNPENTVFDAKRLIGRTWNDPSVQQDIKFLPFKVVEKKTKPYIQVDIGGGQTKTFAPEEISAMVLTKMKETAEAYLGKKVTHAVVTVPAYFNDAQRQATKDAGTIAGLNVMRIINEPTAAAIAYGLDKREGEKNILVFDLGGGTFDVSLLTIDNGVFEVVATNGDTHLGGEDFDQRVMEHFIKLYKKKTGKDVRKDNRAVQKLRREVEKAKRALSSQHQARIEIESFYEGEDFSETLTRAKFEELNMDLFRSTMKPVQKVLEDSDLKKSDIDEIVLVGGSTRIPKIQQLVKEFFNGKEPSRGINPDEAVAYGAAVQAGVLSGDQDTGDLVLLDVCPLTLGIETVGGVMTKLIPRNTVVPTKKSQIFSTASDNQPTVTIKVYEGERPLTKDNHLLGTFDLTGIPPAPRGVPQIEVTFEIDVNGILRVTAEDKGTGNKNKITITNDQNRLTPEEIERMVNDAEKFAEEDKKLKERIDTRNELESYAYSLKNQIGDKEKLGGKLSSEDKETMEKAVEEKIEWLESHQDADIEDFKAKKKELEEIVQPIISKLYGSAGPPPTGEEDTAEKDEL
UniProt P28799, residues 18-593: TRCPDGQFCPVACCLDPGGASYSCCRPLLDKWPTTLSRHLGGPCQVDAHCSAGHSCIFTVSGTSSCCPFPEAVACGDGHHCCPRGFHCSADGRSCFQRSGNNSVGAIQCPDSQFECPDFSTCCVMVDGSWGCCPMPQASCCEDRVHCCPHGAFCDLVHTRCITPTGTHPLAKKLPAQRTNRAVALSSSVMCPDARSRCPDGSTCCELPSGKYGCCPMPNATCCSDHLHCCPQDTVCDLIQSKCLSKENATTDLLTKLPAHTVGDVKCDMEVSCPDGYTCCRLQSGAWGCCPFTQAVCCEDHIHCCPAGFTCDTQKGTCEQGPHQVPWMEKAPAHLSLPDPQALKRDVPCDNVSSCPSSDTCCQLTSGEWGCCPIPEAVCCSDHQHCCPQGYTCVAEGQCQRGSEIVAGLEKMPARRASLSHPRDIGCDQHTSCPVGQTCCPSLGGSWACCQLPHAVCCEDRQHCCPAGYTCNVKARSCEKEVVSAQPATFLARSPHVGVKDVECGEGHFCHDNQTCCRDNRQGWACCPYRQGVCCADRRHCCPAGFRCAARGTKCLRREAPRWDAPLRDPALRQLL
UniProt P50990: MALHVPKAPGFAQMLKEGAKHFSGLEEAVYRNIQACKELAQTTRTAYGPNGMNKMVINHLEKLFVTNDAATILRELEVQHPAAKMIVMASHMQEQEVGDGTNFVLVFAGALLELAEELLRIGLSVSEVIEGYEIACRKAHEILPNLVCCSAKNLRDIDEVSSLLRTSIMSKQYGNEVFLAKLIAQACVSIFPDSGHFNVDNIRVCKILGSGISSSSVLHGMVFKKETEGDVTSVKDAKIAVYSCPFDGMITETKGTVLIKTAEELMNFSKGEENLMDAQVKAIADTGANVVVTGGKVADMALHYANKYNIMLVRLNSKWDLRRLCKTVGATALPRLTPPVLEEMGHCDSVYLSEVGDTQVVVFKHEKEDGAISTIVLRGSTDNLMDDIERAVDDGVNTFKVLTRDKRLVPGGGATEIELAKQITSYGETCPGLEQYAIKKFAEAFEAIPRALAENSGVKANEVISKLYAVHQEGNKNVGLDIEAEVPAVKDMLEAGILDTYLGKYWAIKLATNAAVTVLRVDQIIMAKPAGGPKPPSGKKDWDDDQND
UniProt Q99873: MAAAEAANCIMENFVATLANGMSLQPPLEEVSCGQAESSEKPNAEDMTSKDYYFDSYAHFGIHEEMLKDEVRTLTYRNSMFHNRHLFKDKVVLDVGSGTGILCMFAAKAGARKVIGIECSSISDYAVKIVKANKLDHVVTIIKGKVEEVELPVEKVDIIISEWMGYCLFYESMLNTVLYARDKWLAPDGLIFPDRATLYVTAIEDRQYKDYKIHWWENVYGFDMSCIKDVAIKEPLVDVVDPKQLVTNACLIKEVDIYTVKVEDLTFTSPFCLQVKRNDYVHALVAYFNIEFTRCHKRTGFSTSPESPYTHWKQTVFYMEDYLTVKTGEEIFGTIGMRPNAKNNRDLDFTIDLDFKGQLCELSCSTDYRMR

B1: BBS4 (protein, UniProt Q96RK4 1-519)
chain: MAEERVATRTQFPVSTESQKPRQKKAPEFPILEKQNWLIHLHYIRKDYEACKAVIKEQLQETQGLCEYAIYVQALIFRLEGNIQESLELFQTCAVLSPQSADNLKQVARSLFLLGKHKAAIEVYNEAAKLNQKDWEISHNLGVCYIYLKQFNKAQDQLHNALNLNRHDLTYIMLGKIHLLEGDLDKAIEVYKKAVEFSPENTELLTTLGLLYLQLGIYQKAFEHLGNALTYDPTNYKAILAAGSMMQTHGDFDVALTKYRVVACAVPESPPLWNNIGMCFFGKKKYVAAISCLKRANYLAPFDWKILYNLGLVHLTMQQYASAFHFLSAAINFQPKMGELYMLLAVALTNLEDIENAKRAYAEAVHLDKCNPLVNLNYAVLLYNQGEKKNALAQYQEMEKKVSLLKDNSSLEFDSEMVEMAQKLGAALQVGEALVWTKPVKDPKSKHQTTSTSKPASFQQPLGSNQALGQAMSSAAAYRTLPSGAGGTSQFTKPPSLPLEPEPAVESSPTETSEQIREK
B2: Serpin H1 (protein, UniProt P50454 19-418)
chain: AEVKKPAAAAAPGTAEKLSPKAATLAERSAGLAFSLYQAMAKDQAVENILVSPVVVASSLGLVSLGGKATTASQAKAVLSAEQLRDEEVHAGLGELLRSLSNSTARNVTWKLGSRLYGPSSVSFADDFVRSSKQHYNCEHSKINFRDKRSALQSINEWAAQTTDGKLPEVTKDVERTDGALLVNAMFFKPHWDEKFHHKMVDNRGFMVTRSYTVGVMMMHRTGLYNYYDDEKEKLQIVEMPLAHKLSSLIILMPHHVEPLERLEKLLTKEQLKIWMGKMQKKAVAISLPKGVVEVTHDLQKHLAGLGLTEAIDKNKADLSRMSGKKDLYLASVFHATAFELDTDGNPFDQDIYGREELRSPKLFYADHPFIFLVRDTQSGSLLFIGRLVRPKGDKMRDEL
B3: GRXCR2 (protein, UniProt A6NFK2 1-248)
chain: MEDPEKKLNQKSDGKPRKVRFKISSSYSGRVLKQVFEDGQELESPKEEYPHSFLQESLETMDGVYGSGEVPRPQMCSPKLTAQRISVFREGNAYTLAGGQPRFNDYKANDHKPLPIIDFGKIIIYTNNLKIIRTPMDKRDFVRKILQKEEEAEEESLMNKEESYGGRDQHDRPLVEAESTLPQNRYTQEGDIPEDSCFHCRGSGSATCSLCHGSKFSMLANRFKESYRALRCPACNENGLQPCQICNQ
B4: BLOC1S2 (protein, UniProt Q6QNY1 1-142)
chain: MAAAAEGVLATRSDEPARDDAAVETAEEAKEPAEADITELCRDMFSKMATYLTGELTATSEDYKLLENMNKLTSLKYLEMKDIAINISRNLKDLNQKYAGLQPYLDQINVIEEQVAALEQAAYKLDAYSKKLEAKYKKLEKR

The molecules below were run against Glucose regulated protein 78 (GRP78) (human (endogenous in OECM1, FaDu, BM2, NPC076)) (UniProt P11021) (assay: co-IP; plasma membrane (PM) proteins of OECM1, FaDu, BM2 or NPC076 cells incubated with anti-GRP78 antibody or isotype control immunoglobulin at 4 °C overnight, 2% CHAPS, protein A/G agarose beads, washed twice with PBS; western blot of the candidates).

binding | Molecule
binds | Progranulin (from UniProt P28799 18-593)
binds | TCP-1 theta (from UniProt P50990 1-548)
binds | PRMT1 (from UniProt Q99873 1-371)
binds | B1
binds | B2
binds | B3
binds | B4
